In paper PMC5675994:
No constants are given. Whether binding was seen depends on the method and setting. Binding seen in cells or lysates may run through a third protein. A yes stands for co-enrichment or nearness to the bait. Other partners may have been found. Where a sequence is shown, tags or fusion partners need not be part of it.

Chains of the proteins cited; added tags and fusions are not shown. Lines headed by an entry give the natural chain unless they say otherwise; changes in a name come on top. Residues count along the entry.
UniProt Q07540: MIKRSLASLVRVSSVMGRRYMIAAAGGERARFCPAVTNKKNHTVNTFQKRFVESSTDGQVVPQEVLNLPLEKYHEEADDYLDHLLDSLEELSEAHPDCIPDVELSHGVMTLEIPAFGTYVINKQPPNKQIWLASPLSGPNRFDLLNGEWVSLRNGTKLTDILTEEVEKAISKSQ
UniProt P18239: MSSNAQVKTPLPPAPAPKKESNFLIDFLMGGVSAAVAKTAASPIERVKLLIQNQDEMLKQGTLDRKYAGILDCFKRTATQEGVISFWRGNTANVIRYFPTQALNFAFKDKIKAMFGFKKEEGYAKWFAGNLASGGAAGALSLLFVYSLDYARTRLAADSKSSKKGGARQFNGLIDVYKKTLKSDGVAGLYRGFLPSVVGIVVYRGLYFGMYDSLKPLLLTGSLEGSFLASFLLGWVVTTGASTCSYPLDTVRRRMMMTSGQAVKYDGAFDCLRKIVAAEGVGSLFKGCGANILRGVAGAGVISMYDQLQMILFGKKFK
UniProt P50861: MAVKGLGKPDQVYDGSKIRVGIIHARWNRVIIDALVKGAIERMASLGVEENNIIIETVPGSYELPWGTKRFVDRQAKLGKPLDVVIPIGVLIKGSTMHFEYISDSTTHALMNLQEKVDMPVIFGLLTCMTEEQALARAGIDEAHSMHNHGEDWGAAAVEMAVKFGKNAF
UniProt P10591: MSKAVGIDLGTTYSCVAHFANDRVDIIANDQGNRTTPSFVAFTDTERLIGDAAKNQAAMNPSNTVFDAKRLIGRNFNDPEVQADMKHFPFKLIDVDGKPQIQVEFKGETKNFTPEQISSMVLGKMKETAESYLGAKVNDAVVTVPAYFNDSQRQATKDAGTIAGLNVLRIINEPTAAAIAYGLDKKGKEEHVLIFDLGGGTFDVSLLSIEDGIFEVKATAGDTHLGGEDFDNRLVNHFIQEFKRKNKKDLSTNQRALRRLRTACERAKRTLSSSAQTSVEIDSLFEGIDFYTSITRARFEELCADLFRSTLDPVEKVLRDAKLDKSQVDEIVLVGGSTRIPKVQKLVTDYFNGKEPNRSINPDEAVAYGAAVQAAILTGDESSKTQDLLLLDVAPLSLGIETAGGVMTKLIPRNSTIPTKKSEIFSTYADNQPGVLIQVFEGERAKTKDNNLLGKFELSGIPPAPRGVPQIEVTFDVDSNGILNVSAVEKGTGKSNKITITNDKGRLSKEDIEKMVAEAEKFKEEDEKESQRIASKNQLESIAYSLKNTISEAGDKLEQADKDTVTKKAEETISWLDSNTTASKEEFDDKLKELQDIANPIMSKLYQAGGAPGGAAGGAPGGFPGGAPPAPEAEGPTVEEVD
UniProt P19882, residues 26-572: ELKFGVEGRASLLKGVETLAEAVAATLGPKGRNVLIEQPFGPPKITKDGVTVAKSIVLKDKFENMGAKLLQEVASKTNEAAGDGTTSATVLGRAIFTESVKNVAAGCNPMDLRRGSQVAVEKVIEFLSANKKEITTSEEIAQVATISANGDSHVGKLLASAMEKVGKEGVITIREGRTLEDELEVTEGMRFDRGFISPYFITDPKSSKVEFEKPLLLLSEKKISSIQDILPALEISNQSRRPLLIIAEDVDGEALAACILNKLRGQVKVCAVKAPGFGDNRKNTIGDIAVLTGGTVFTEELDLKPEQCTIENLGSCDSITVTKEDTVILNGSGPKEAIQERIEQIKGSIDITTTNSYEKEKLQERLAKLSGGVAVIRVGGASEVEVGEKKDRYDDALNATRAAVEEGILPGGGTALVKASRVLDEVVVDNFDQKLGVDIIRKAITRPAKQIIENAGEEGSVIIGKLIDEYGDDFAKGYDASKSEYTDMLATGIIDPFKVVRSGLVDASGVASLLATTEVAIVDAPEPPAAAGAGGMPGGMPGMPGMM
UniProt P00358: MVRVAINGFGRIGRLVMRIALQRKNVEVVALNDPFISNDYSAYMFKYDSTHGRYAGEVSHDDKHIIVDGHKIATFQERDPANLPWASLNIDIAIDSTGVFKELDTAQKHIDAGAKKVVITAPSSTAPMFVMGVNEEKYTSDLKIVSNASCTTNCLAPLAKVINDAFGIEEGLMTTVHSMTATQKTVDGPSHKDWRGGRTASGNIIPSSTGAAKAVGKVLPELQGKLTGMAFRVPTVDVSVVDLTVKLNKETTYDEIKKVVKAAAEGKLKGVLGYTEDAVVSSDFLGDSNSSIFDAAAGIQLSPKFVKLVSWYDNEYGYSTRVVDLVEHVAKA
UniProt P16474, residues 43-682: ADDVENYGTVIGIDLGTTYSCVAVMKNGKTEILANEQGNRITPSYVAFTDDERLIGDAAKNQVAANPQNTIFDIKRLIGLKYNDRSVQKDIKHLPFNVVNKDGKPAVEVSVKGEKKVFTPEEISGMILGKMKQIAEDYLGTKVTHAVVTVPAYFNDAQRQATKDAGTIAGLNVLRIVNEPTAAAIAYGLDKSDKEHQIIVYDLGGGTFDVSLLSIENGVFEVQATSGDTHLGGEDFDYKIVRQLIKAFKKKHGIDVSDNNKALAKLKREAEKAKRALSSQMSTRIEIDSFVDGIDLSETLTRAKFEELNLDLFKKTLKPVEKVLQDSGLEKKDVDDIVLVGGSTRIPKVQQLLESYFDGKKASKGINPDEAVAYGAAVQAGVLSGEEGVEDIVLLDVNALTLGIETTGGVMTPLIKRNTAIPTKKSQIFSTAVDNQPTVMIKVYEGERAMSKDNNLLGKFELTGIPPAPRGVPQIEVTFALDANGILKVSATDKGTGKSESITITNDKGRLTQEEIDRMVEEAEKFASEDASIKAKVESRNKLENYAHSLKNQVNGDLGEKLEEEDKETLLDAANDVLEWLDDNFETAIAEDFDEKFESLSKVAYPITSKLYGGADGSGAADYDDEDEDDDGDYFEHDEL
UniProt P02992, residues 39-437: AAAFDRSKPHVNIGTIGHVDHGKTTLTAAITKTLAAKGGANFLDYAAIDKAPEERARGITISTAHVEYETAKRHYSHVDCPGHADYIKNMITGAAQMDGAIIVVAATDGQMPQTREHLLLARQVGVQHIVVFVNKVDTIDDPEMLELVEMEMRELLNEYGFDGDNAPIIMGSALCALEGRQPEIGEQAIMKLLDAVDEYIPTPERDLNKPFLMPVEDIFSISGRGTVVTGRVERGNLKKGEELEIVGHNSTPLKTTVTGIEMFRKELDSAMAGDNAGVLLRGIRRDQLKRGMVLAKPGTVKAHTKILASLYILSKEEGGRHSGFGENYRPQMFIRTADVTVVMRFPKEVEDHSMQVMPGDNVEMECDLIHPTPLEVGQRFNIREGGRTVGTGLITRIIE
UniProt P23292: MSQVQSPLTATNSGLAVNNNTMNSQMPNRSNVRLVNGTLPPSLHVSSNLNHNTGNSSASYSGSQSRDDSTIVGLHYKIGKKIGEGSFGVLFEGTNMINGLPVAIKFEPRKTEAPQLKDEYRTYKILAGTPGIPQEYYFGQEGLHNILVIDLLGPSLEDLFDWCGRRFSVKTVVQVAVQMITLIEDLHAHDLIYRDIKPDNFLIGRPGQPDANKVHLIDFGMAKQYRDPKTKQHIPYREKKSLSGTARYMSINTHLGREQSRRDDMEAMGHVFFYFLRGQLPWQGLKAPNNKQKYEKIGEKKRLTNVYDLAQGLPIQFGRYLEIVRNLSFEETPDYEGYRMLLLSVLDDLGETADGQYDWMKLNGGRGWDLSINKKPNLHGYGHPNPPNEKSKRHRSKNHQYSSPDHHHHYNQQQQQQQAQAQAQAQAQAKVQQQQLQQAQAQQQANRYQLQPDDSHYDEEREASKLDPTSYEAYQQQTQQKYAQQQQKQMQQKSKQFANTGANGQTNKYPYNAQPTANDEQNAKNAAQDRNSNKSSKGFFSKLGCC
UniProt P17255: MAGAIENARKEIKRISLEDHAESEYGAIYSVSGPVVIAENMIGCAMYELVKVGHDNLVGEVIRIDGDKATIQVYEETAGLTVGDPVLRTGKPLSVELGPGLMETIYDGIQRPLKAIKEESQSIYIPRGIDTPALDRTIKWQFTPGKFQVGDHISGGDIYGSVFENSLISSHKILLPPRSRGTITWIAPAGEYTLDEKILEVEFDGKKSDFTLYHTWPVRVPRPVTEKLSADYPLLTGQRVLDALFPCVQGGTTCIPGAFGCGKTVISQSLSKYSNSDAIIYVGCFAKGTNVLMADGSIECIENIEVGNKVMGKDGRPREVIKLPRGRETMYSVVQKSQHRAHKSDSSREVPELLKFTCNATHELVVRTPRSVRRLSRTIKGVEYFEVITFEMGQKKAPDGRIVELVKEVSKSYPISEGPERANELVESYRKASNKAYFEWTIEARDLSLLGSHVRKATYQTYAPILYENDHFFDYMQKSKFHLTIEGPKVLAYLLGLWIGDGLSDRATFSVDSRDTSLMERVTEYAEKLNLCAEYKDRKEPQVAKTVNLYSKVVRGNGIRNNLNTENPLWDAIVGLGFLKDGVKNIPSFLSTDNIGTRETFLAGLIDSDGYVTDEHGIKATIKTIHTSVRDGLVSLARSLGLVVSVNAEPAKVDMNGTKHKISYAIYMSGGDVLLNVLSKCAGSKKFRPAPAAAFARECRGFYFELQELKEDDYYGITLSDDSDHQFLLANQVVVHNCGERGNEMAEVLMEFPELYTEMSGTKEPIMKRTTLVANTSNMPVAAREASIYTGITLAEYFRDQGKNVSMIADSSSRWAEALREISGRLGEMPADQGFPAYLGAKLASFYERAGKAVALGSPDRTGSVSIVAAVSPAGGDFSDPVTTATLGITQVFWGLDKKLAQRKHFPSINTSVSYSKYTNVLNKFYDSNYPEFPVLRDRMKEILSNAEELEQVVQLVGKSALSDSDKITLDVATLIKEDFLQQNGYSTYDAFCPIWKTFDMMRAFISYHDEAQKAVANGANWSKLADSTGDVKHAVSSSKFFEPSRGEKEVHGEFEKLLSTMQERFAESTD
UniProt P00830, residues 34-511: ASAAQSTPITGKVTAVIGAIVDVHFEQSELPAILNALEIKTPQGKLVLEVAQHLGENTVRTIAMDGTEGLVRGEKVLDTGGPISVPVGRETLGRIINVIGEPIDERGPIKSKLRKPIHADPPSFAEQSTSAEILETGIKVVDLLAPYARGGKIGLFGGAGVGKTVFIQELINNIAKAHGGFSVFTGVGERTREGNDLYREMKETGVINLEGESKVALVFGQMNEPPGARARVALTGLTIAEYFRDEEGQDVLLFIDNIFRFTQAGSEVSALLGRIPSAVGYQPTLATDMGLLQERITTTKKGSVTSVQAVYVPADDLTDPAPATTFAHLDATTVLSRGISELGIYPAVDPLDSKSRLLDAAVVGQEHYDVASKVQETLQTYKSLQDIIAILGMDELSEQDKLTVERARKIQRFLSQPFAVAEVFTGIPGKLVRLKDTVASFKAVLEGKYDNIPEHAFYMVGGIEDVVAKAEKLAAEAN
UniProt P00360: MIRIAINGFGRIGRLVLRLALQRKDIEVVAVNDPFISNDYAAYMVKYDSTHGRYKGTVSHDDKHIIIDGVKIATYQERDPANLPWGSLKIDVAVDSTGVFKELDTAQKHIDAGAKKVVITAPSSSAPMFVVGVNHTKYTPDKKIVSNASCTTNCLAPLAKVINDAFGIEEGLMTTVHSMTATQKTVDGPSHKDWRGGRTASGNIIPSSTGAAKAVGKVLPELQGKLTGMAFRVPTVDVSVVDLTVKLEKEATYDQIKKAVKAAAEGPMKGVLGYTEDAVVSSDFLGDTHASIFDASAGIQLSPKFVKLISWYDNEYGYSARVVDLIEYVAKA
UniProt P40495, residues 23-371: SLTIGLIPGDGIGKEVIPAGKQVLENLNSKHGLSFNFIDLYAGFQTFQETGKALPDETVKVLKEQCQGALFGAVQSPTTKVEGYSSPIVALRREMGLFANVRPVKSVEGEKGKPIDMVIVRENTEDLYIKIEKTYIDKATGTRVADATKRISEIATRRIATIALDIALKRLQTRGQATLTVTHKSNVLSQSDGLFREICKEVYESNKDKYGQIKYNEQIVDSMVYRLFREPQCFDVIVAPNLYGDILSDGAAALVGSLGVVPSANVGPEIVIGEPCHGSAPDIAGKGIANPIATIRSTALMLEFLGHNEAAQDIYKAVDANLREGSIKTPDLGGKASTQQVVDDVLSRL
UniProt P07260: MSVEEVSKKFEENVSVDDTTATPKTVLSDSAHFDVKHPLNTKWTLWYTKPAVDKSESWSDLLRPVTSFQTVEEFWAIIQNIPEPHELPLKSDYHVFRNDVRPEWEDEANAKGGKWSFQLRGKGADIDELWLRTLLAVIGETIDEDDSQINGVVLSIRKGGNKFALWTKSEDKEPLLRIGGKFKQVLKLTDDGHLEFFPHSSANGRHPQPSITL
UniProt P43122, residues 31-407: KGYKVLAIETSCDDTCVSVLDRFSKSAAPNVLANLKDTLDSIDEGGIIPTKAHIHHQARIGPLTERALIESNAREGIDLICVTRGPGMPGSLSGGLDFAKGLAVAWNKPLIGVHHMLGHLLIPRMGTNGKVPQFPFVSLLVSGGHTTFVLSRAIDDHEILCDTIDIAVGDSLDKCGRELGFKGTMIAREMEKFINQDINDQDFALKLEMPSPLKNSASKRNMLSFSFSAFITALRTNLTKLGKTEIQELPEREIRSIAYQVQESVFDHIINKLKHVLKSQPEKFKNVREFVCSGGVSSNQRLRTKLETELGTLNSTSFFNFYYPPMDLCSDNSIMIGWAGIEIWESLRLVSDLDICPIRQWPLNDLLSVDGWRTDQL

How the values were obtained:
[1] = biological target: Yfh1-His6 (S. cerevisiae) (UniProt Q07540); assay: affinity purification with mass spectrometry; Yfh1-His6 held on Ni-NTA superflow agarose from French-press lysate (108,000xg supernatant) of isolated mitochondria of the Yfh1-His6 yeast strain; 50 mM TrisCl pH 7.5, 80 mM KCl, 10% glycerol, wash 40 mM imidazole with 0.1% Triton X-100, elution 400 mM imidazole; eluate analysed by LC-MS/MS
[2] = biological target: T1, Nfs1-His6 (S. cerevisiae) (UniProt P25374); assay: affinity purification with mass spectrometry; Nfs1-His6 held on Ni-NTA superflow agarose from sonicated, cleared lysate of isolated mitochondria of the Gal-Nfs1-His6 yeast strain; 50 mM TrisCl pH 7.5, 80 mM KCl, 10% glycerol, wash 40 mM imidazole, elution 400 mM imidazole; eluate analysed by LC-MS/MS
T1 sequence: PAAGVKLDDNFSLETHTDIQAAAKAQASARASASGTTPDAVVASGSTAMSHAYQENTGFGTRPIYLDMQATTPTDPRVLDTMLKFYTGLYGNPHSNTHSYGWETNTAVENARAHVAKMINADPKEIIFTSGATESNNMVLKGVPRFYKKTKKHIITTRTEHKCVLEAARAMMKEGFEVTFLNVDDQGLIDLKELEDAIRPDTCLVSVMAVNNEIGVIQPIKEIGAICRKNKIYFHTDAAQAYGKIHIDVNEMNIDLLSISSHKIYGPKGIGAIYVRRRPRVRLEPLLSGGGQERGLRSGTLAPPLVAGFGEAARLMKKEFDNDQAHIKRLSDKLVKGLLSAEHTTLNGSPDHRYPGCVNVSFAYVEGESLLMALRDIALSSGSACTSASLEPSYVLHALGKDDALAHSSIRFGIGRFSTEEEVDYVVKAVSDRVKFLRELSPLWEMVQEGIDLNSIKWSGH

Row | Molecule | binding [1] | binding [2]
1 | Serine/threonine-protein kinase HRK1 (from UniProt Q08732 1-759) | binds | binds
2 | ADP,ATP carrier protein 2 (from UniProt P18239 1-318) | binds | binds
3 | ATP synthase subunit alpha, mitochondrial (from UniProt P07251 36-545) | binds | binds
4 | Succinate dehydrogenase [ubiquinone] flavoprotein subunit, mitochondrial (from UniProt Q00711 29-640) | binds | binds
5 | Cerevisin (from UniProt P09232) | binds | binds
6 | Glyceraldehyde-3-phosphate dehydrogenase 3 (from UniProt P00359 1-332) | binds | binds
7 | 6,7-dimethyl-8-ribityllumazine synthase (from UniProt P50861 1-169) | binds | binds
8 | Heat shock protein SSA1 (from UniProt P10591 1-642) | binds | binds
9 | Heat shock protein 60, mitochondrial (from UniProt P19882 26-572) | binds | binds
10 | Glyceraldehyde-3-phosphate dehydrogenase 2 (from UniProt P00358 1-332) | binds | binds
11 | 78 glucose-regulated protein homolog (from UniProt P16474 43-682) | binds | binds
12 | Heat shock protein SSC1, mitochondrial (from UniProt P0CS90 24-654) | binds | binds
13 | Elongation factor Tu, mitochondrial (from UniProt P02992 39-437) | binds | binds
14 | Casein kinase I homolog 2 (from UniProt P23292 1-546) (enzyme) | binds | binds
15 | V-type proton ATPase catalytic subunit A;Endonuclease PI-SceI (from UniProt P17255) | binds | binds
16 | ATP synthase subunit beta, mitochondrial (from UniProt P00830 34-511) | binds | binds
17 | Nucleoporin POM152 (from UniProt P39685 1-1337) | binds | binds
18 | Glyceraldehyde-3-phosphate dehydrogenase 1 (from UniProt P00360 1-332) | binds | binds
19 | Homoisocitrate dehydrogenase, mitochondrial (from UniProt P40495 23-371) | binds | binds
20 | Dihydroxy-acid dehydratase, mitochondrial (from UniProt P39522 21-585) | binds | binds
21 | Eukaryotic translation initiation factor 4E (from UniProt P07260 1-213) | binds | binds
22 | tRNA N6-adenosine threonylcarbamoyltransferase, mitochondrial (from UniProt P43122 31-407) | binds | binds
23 | Elongation factor 1-alpha (from UniProt P02994 1-458) | binds | binds
24 | Putative glucokinase-2 (protein, UniProt Q04409 1-500) MSFENLHKVNAEALEDAVVEICSSLQVDAAKLDELTAYFIECMEKGLNNTSVGEEKTVDKGLPMIPTYVTSLPNGTERGVLLAADLGGTHFRVCSVTLNGDGTFDMQQLKSKIPEEYLNDKDVTSEELFSYLGRRTRAFVRKHHPELLKSTGENIKPLKMGFTFSYPVDQTSLSSGTLIRWTKSFKIEDTVGKDVVRLYQEQLDIQGLSMINVVALTNDTVGTFLSHCYTSGSRPSSAGEISEPVIGCIFGTGTNGCYMEDIENIKKLPDELRTRLLHEGKTQMCINIEWGSFDNELKHLSATKYDIDIDQKFSPNPGYHLFEKRISGMYLGELLRNILVDLHARGLILGQYRNYDQLPHRLKTPFQLCSEVLSRIEIDDSTNLRETELSFLQSLRLPTTFEERKAIQNLVRSITRRSAYLAAVPIAAILIKTNALNKRYHGEVEIGFDGYVIEYYPGFRSMLRHALALSPIGTEGERKIHLRLAKDGSGVGAALCALVA | binds | binds
25 | UTP--glucose-1-phosphate uridylyltransferase (protein, UniProt P32861 1-499) MSTKKHTKTHSTYAFESNTNSVAASQMRNALNKLADSSKLDDAARAKFENELDSFFTLFRRYLVEKSSRTTLEWDKIKSPNPDEVVKYEIISQQPENVSNLSKLAVLKLNGGLGTSMGCVGPKSVIEVREGNTFLDLSVRQIEYLNRQYDSDVPLLLMNSFNTDKDTEHLIKKYSANRIRIRSFNQSRFPRVYKDSLLPVPTEYDSPLDAWYPPGHGDLFESLHVSGELDALIAQGREILFVSNGDNLGATVDLKILNHMIETGAEYIMELTDKTRADVKGGTLISYDGQVRLLEVAQVPKEHIDEFKNIRKFTNFNTNNLWINLKAVKRLIESSNLEMEIIPNQKTITRDGHEINVLQLETACGAAIRHFDGAHGVVVPRSRFLPVKTCSDLLLVKSDLFRLEHGSLKLDPSRFGPNPLIKLGSHFKKVSGFNARIPHIPKIVELDHLTITGNVFLGKDVTLRGTVIIVCSDGHKIDIPNGSILENVVVTGNLQILEH | binds | binds
26 | Mitochondrial metal transporter 2 (protein, UniProt Q08970 57-484) KEGQEEGYNEQLISKMSSQNGSNSRQNESEGKKEGKASSVKSLLQHTHSHSHTHMHDNPLLSLNVQQIKKNPGVRITWIGLASNVGMAVGKFVGGITFHSQALLADSVHALSDLVSDFLTLFSVQYASRKPTSEYPYGYGKVETVGSLAVSTILAMAGISIGWSSLCAIVGPVIPHAILESMAGLIGETHSHSQSLTQQATNVNAVWIAAGSILVKEWVFQATKKVAIQTNSNVLMANAWHHRVDSLTSLVALVAITSSYFFNIQSLDNLGGLVVSGLIIKTGGQGILSSLKELVDQSIPPTDPRYLEIESVIKDSIGSLKTDLDLKQSLHVRDLTILASGPNLRATTTLEVPVLHSGQEVGIRFLENAISTIREDLRMKVPNVGKVDVEFVDVTSDSKGDLEHSHDTKSTNHTHTHSDSADTHTHKH | binds | binds
27 | Serine hydroxymethyltransferase, cytosolic (protein, UniProt P37291 1-469) MPYTLSDAHHKLITSHLVDTDPEVDSIIKDEIERQKHSIDLIASENFTSTSVFDALGTPLSNKYSEGYPGARYYGGNEHIDRMEILCQQRALKAFHVTPDKWGVNVQTLSGSPANLQVYQAIMKPHERLMGLYLPDGGHLSHGYATENRKISAVSTYFESFPYRVNPETGIIDYDTLEKNAILYRPKVLVAGTSAYCRLIDYKRMREIADKCGAYLMVDMAHISGLIAAGVIPSPFEYADIVTTTTHKSLRGPRGAMIFFRRGVRSINPKTGKEVLYDLENPINFSVFPGHQGGPHNHTIAALATALKQAATPEFKEYQTQVLKNAKALESEFKNLGYRLVSNGTDSHMVLVSLREKGVDGARVEYICEKINIALNKNSIPGDKSALVPGGVRIGAPAMTTRGMGEEDFHRIVQYINKAVEFAQQVQQSLPKDACRLKDFKAKVDEGSDVLNTWKKEIYDWAGEYPLAV | binds | binds
28 | (R,R)-butanediol dehydrogenase (protein, UniProt P39714 1-382) MRALAYFKKGDIHFTNDIPRPEIQTDDEVIIDVSWCGICGSDLHEYLDGPIFMPKDGECHKLSNAALPLAMGHEMSGIVSKVGPKVTKVKVGDHVVVDAASSCADLHCWPHSKFYNSKPCDACQRGSENLCTHAGFVGLGVISGGFAEQVVVSQHHIIPVPKEIPLDVAALVEPLSVTWHAVKISGFKKGSSALVLGAGPIGLCTILVLKGMGASKIVVSEIAERRIEMAKKLGVEVFNPSKHGHKSIEILRGLTKSHDGFDYSYDCSGIQVTFETSLKALTFKGTATNIAVWGPKPVPFQPMDVTLQEKVMTGSIGYVVEDFEEVVRAIHNGDIAMEDCKQLITGKQRIEDGWEKGFQELMDHKESNVKILLTPNNHGEMK | binds | binds
29 | Malate dehydrogenase, mitochondrial (protein, UniProt P17505 18-334) YKVTVLGAGGGIGQPLSLLLKLNHKVTDLRLYDLKGAKGVATDLSHIPTNSVVKGFTPEEPDGLNNALKDTDMVLIPAGVPRKPGMTRDDLFAINASIVRDLAAATAESAPNAAILVISNPVNSTVPIVAQVLKNKGVYNPKKLFGVTTLDSIRAARFISEVENTDPTQERVNVIGGHSGITIIPLISQTNHKLMSDDKRHELIHRIQFGGDEVVKAKNGAGSATLSMAHAGAKFANAVLSGFKGERDVIEPSFVDSPLFKSEGIEFFASPVTLGPDGIEKIHPIGELSSEEEEMLQKCKETLKKNIEKGVNFVASK | binds | –
